Experimental data reported in publication PMC10741959.
These are yes or no findings as the source states them, for the method shown. In cells and extracts the contact can be indirect. Binding can be weak; no strength is given.

By UniProt entry, the sequences of proteins in these tests, tags left out. Where a name states a change or a piece, a line headed by the entry shows the natural chain unless it says otherwise.
UniProt Q9NZ71: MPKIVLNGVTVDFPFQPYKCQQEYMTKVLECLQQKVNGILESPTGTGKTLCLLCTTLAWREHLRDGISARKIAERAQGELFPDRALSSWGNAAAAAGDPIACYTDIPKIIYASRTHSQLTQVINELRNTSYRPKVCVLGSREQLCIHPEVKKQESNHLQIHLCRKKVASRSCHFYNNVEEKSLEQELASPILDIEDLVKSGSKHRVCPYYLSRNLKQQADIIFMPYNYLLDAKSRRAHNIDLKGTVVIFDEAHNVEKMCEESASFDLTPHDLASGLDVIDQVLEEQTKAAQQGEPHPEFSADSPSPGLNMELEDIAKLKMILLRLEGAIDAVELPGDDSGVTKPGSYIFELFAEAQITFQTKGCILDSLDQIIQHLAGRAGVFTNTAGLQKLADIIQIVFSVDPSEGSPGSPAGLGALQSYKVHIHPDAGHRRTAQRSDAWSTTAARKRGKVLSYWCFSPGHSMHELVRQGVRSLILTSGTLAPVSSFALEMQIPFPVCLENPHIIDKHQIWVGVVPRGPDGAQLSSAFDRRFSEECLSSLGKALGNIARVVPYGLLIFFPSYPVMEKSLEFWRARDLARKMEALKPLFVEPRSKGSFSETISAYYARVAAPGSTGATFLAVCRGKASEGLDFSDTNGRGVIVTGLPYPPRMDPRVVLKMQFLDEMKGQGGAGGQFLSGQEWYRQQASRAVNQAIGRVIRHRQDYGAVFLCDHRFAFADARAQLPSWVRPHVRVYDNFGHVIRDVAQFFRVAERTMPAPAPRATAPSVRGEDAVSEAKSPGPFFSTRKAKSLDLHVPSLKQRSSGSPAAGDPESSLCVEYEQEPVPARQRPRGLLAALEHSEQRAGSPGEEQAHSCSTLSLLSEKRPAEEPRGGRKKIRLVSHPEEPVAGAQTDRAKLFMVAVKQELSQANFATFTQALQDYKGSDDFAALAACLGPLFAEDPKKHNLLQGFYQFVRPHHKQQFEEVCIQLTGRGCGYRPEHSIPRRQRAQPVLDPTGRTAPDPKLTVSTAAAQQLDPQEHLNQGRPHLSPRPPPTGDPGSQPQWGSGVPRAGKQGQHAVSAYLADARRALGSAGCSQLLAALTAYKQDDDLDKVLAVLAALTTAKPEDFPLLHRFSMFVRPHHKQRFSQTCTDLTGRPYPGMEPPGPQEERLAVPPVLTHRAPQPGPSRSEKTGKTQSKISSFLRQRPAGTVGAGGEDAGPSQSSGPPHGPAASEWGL
UniProt P49790: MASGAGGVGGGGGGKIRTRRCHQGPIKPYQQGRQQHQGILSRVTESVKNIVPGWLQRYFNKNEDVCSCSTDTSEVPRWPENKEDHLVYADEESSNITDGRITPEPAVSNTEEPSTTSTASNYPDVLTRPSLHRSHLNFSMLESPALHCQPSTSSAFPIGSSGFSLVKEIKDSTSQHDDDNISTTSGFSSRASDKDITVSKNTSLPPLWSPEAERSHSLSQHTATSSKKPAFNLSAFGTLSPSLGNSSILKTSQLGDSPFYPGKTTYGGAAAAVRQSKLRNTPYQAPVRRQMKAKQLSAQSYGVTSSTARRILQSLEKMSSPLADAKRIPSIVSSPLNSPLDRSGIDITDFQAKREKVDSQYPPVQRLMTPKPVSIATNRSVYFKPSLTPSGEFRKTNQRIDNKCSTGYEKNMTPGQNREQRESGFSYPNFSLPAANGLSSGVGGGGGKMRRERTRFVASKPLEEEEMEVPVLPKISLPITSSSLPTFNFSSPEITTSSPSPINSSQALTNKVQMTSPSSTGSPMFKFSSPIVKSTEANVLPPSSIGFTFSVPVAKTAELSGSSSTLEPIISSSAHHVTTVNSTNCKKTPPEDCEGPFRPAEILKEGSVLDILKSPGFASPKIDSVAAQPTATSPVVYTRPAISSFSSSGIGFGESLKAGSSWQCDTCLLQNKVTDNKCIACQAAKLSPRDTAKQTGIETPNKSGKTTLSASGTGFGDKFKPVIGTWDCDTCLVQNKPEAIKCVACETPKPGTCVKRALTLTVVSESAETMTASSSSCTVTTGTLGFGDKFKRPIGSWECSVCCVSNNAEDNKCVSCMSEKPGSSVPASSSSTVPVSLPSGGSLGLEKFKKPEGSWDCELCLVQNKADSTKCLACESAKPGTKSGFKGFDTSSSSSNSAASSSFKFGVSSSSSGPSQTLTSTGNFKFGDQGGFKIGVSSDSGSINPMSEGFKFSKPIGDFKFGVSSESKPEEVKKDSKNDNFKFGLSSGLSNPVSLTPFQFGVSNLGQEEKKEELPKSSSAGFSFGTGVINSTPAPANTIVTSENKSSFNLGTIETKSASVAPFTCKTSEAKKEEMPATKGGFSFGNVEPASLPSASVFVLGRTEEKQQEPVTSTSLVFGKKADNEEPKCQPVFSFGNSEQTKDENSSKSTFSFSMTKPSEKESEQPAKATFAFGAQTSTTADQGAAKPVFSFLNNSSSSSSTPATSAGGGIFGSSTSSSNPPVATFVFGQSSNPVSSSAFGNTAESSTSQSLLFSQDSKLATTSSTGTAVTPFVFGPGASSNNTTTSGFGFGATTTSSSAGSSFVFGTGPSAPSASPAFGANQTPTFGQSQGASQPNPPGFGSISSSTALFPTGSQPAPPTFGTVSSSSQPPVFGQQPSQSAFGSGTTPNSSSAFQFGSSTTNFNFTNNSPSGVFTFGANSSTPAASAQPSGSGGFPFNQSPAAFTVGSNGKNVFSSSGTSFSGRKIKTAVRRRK

How the values were obtained:
[1] = target: RTEL1 (Regulator of TElomere Length Helicase 1), endogenous (human (endogenous in HeLa and 293T)) (UniProt Q9NZ71); test: co-IP; 293T cells transiently transfected with GFP-tagged N-terminal fragments of NUP153; immunoprecipitation with anti-RTEL1, blot with anti-GFP
[2] = target: RTEL1 (Regulator of TElomere Length Helicase 1), endogenous (human (endogenous in HeLa and 293T)) (UniProt Q9NZ71); test: co-IP; anti-RTEL1 immunoprecipitation from HeLa lysates, both proteins endogenous; cells synchronised in G1/S, treated or not with importazole (40 μM, 3 h), released into S-phase for 1 h; blot with mAb414 and anti-RTEL1

Row | binding [1] | binding [2] | Substance
1 | binds | – | GFP-tagged N-terminal fragment of NUP153 (aa 1-434) (from UniProt P49790 1-434) (domain or fragment)
2 | – | binds | NUP153, endogenous (from UniProt P49790 1-1475)
